Source: publication PMC9584938
These are yes or no findings as the source states them, for the method shown. Binding seen in cells or lysates may run through a third protein. Some results given as binding are weak or reduced against the parent protein; the word gives no strength. For part of these data: Sequences can lack the tags named with a protein.

Protein sequences, listed by entry. Tags and fused reporters are not part of them.
UniProt P84022: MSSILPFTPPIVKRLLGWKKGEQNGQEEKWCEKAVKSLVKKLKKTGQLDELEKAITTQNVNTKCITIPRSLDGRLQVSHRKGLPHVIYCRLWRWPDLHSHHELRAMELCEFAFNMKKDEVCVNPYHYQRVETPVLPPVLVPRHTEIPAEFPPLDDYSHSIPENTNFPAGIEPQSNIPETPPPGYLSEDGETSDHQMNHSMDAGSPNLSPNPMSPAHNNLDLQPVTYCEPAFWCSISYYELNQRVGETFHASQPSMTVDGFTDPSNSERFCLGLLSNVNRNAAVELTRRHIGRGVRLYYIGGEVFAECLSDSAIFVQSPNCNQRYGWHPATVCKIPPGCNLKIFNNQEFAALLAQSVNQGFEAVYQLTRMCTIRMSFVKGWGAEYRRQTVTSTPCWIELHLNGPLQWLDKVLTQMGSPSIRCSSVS
UniProt P21281: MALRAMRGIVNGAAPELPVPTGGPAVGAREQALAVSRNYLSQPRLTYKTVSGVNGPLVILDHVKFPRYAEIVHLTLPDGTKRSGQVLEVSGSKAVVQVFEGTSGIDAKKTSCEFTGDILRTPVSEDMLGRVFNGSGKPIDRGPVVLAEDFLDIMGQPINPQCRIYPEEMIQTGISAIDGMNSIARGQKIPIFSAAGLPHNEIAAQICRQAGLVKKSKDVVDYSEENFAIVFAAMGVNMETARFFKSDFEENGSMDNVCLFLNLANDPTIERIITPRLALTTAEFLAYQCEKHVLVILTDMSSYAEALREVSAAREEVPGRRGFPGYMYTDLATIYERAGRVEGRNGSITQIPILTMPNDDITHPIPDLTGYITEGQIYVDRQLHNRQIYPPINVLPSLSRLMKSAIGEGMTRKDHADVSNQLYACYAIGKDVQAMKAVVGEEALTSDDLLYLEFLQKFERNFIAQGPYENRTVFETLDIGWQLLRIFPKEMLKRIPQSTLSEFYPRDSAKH
UniProt Q9HAV0: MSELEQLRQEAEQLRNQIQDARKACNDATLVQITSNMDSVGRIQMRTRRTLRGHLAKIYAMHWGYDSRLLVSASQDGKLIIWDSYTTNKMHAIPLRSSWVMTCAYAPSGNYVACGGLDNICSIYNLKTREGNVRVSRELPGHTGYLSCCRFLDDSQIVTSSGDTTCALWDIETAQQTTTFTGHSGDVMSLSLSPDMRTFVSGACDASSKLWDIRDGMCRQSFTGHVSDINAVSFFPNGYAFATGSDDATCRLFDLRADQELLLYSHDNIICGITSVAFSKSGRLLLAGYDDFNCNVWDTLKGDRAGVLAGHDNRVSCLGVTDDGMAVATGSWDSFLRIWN

Assays:
[1] = target: FLOT1 (human (endogenous in HEK293)) (UniProt O75955); assay: co-IP; HEK293 lysate (RIPA or 1% NP-40 lysis buffer), 1.6 mg protein with 3 µg antibody overnight at 4 °C, Protein A beads, western blot; control: empty beads
[2] = target: T1, frizzled 9 (FZD9) (human (endogenous in HEK293)) (UniProt O00144); assay: as above
T1 sequence: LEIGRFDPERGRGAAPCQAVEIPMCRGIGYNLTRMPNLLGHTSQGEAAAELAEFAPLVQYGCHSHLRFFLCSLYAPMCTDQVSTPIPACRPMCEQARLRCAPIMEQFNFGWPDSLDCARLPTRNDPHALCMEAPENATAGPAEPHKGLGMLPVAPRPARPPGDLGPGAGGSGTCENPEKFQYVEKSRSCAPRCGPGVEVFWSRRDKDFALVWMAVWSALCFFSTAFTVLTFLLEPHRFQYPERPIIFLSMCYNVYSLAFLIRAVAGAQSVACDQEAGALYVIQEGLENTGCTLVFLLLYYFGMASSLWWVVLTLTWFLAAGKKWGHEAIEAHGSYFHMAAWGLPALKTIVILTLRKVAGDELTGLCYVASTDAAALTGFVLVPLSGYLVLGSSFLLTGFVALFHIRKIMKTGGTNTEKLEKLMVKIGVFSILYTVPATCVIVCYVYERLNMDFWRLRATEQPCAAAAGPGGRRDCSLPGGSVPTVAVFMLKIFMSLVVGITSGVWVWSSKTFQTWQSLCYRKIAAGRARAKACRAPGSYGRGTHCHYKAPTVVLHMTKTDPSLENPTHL

[3] = target: T2, FLOT2 (human (endogenous in HEK293)) (UniProt Q14254); assay: cross-linking; XL-LC-MS/MS: lysosome-enriched fractions (SPIONs) of HEK293 cells, intact and disrupted, 1 mg/mL protein in isolation buffer, 0.25 mM DSSO, 30 min at room temperature; XlinkX, FDR 5 %
T2 sequence: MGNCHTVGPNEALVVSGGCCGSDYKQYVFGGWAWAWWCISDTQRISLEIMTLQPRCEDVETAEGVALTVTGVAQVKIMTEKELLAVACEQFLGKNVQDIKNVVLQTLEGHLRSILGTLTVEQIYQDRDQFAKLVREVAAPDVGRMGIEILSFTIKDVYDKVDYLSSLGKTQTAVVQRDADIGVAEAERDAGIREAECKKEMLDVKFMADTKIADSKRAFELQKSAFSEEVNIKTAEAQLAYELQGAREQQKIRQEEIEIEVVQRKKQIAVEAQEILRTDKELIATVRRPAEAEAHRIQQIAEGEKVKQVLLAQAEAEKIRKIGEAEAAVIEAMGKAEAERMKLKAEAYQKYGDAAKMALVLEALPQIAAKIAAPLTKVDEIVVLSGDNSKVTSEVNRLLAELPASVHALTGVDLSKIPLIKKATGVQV

[4] = target: T3, FLAG-FLOT1 lacking amino acid residues 200–300 (Δ100) (UniProt O75955); assay: co-IP; FLAG-IP from HEK293 cells co-transfected with full-length FLAG-FLOT1 and FLAG-FLOT2 or with both Δ100 versions; detection of GNB4 by western blot
T3 sequence: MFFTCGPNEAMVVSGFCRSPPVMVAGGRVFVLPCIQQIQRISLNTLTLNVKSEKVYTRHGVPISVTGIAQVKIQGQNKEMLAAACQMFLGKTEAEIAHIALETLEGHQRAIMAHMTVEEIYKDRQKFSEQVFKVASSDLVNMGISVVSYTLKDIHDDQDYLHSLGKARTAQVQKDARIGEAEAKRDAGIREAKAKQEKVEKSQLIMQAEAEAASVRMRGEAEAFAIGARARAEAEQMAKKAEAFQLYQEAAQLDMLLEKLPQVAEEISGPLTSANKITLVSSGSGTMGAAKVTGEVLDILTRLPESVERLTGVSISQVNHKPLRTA

[5] = target: T4, FLAG-FLOT2 lacking amino acid residues 200–300 (Δ100) (UniProt Q14254); assay: as above
T4 sequence: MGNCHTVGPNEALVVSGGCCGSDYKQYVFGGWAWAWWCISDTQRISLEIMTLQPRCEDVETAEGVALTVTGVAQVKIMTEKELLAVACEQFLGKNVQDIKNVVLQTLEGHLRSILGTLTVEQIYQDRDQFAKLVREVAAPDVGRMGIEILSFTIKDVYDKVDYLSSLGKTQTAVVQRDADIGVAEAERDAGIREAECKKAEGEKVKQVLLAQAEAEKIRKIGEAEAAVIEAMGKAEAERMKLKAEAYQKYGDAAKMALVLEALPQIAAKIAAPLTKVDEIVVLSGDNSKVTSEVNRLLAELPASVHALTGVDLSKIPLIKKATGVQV

full-length FLAG-FLOT1 = full-length FLAG-FLOT1 (UniProt O75955); assay: as above
full-length FLAG-FLOT2 = target: T5, full-length FLAG-FLOT2 (UniProt Q14254); assay: as above
T5 sequence: T2 sequence

[6] = target: T2, FLOT2 (human (endogenous in HEK293)); assay: co-IP; HEK293 lysate (RIPA or 1% NP-40 lysis buffer), 1.6 mg protein with 3 µg antibody overnight at 4 °C, Protein A beads, western blot; control: empty beads

binding [1]	binding [2]	binding [3]	binding [4]	binding [5]	binding (full-length FLAG-FLOT1)	binding (full-length FLAG-FLOT2)	binding [6]	Substance
binds	–	–	–	–	–	–	–	SMAD3 (from UniProt P84022 1-425)
–	binds	–	–	–	–	–	–	ATP6V1B2 (from UniProt P21281 1-511)
binds	–	binds	no binding	no binding	binds	binds	binds	guanine-nucleotide-binding protein subunit beta-4 (GNB4) (from UniProt Q9HAV0 1-340)
